# Measured values: patent US20190264214
# Key:
# [1] = biological target: FTO (Homo sapiens) (UniProt Q9C0B1); test: activity assay; details: HPLC demethylation, purified recombinant protein
# [2] = biological target: DCP2 (Homo sapiens) (UniProt Q8IU60); test: enzyme reaction in vitro; details: enzymatically capped with m7Gppp, purified recombinant protein, label: 32P cap
sequence,measurement,setting,value
ACACUUGCUUUUGACACAACU [pm6Am RNA],activity on this sequence,"[1]; 5' monophosphate, first nucleotide m6Am, further reduced with monophosphate, variant of m7Gpppm6Am RNA",less active
ACACUUGCUUUUGACACAACU [pppm6Am RNA],activity on this sequence,"[1]; 5' triphosphate, first nucleotide m6Am, further reduced when m7G removed, variant of m7Gpppm6Am RNA",less active
AGCACUUGCUUUUGACACAACU [m7Gppp-A RNA (decapping)],activity on this sequence,"[2]; first nucleotide A, 10 nM DCP2, 37 C, 2 mM MgCl2, 0.5 mM MnCl2, TLC decapping, oligo assigned from 22-nt length",active
AGCACUUGCUUUUGACACAACU [m7Gppp-Am RNA (decapping)],activity on this sequence,"[2]; first nucleotide 2'-OMe-A, decapping equivalent to unmodified A, variant of m7Gppp-A RNA (decapping)",active
AGCACUUGCUUUUGACACAACU [m7Gppp-m6A RNA (decapping)],activity on this sequence,"[2]; first nucleotide m6A, significantly reduced decapping, variant of m7Gppp-A RNA (decapping)",less active
AGCACUUGCUUUUGACACAACU [m7Gppp-m6Am RNA (decapping)],activity on this sequence,"[2]; first nucleotide m6Am, significantly reduced decapping, variant of m7Gppp-A RNA (decapping)",less active
AGUGGACUAACCACCAUGGAAGGU [internal m6A RNA (DRACH)],activity on this sequence,"[1]; internal m6A (AGUGGm6ACU), not readily detected at 100 nM FTO, detected at 200 nM, oligo assignment by m6A consensus",less active
GACACUUGCUUUUGACACAACU [Gpppm6Am RNA],activity on this sequence,"[1]; 5' Gppp cap without N7-methyl, first nucleotide m6Am, 200 nM FTO, 20 uM RNA, 30 min, impaired without N7-methyl, variant of m7Gpppm6Am RNA",less active
GACACUUGCUUUUGACACAACU [m7GpppACm6A RNA],activity on this sequence,"[1]; 5' m7Gppp cap, m6A at third nucleotide, m6A demethylation poor in diverse contexts, variant of m7Gpppm6Am RNA",less active
GACACUUGCUUUUGACACAACU [m7Gpppm6A RNA],activity on this sequence,"[1]; 5' m7Gppp cap, first nucleotide m6A, 2'-O-methyl important for activity, variant of m7Gpppm6Am RNA",less active
GACACUUGCUUUUGACACAACU [m7Gpppm6Am RNA],activity on this sequence,"[1]; 5' m7Gppp cap, first nucleotide N6,2'-O-dimethyladenosine, 100 nM FTO, 1 h, 37 C, Fe(II), alpha-ketoglutarate, nearly all m6Am converted to Am, kcat/Km about 100-fold higher than for m6A",active

# A weaker result is weaker than the reference pair of the same experiment. For at least one entry, the source does not settle the construct or the ends of the probe.
